{"source": "patent US6608036B1", "about": "“Oligonucleotide N3′→P5′ thiophosphoramidates: their synthesis and administration to treat neoplasms” (Geron Corporation, priority 1999, dated 2003)", "key": {"[1]": {"system": "telomerase (affinity-purified extract from 293 cells over-expressing hTERT)", "assay": "Bio-Tel FlashPlate telomerase activity assay", "format": "biochemical, human", "settings": "thiophosphoramidate oligonucleotides"}, "HME50-5E cells": {"system": "HME50-5E cells", "assay": "Cell growth / crisis of HME50-5E cells", "format": "cell-based, human", "settings": "about 0.1 μM to about 20 μM (FIG. 6)"}}, "note": "Some entries share one result that the patent states for a list of compounds."}
{"substance": "5′-TAGGGTTAGACAA-3′ (thiophosphoramidate backbone, chemistry not fully specified) [SEQ ID NO:2 thiophosphoramidate]", "values": [{"measurement": "IC50", "setting": "[1]", "result": "< 1", "unit": "nM"}, {"measurement": "time until cells entered crisis", "setting": "HME50-5E cells", "result": "≤ 100", "unit": "days"}]}
